In article PMC8544692:
Results are given in words; binding and its absence hold for the method and conditions named. In cells and extracts the contact can be indirect. Some binding calls cover weakened binding; strength is not graded here. Where a sequence is shown, tags or fusion partners need not be part of it.

Chains of the proteins cited; added tags and fusions are not shown.
UniProt Q12834: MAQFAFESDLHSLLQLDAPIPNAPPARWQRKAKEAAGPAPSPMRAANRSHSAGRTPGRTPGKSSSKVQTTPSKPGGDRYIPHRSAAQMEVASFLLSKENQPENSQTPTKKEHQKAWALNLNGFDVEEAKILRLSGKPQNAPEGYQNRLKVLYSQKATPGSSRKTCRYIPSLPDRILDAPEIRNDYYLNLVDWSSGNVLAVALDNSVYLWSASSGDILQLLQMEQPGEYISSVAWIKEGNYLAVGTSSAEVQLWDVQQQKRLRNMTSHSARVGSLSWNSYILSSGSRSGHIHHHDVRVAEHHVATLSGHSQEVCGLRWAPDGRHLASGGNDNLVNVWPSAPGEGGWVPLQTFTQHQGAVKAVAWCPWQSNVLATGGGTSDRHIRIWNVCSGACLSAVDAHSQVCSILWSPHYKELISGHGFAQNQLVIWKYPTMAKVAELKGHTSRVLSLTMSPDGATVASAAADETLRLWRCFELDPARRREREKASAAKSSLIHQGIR

Biological target: T1, phosducin-like protein 1 (PhLP1), c-Myc-tagged (UniProt Q13371)
T1 sequence: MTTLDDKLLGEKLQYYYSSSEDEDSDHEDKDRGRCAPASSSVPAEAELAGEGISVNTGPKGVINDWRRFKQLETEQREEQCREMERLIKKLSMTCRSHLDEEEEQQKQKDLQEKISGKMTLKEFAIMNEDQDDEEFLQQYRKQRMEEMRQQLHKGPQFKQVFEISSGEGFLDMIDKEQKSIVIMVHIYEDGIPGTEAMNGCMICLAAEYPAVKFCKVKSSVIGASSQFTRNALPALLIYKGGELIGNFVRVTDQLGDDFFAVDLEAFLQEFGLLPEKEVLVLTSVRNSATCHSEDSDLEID
Assay: co-IP; PhLP1-Myc immunoprecipitated with anti-Myc antibodies and Protein A/G beads from lysates of co-transfected CHO-K1 cells; blot with anti-V5

For “Cell Division Cycle 20 protein (CDC20), V5-tagged (from UniProt Q12834 1-499)”, the binding was “binds”.

B1: Transducin Beta-Like Protein 2 (TBL2), V5-tagged (protein, UniProt Q9Y4P3 1-447)
chain: MELSQMSELMGLSVLLGLLALMATAAVARGWLRAGEERSGRPACQKANGFPPDKSSGSKKQKQYQRIRKEKPQQHNFTHRLLAAALKSHSGNISCMDFSSNGKYLATCADDRTIRIWSTKDFLQREHRSMRANVELDHATLVRFSPDCRAFIVWLANGDTLRVFKMTKREDGGYTFTATPEDFPKKHKAPVIDIGIANTGKFIMTASSDTTVLIWSLKGQVLSTINTNQMNNTHAAVSPCGRFVASCGFTPDVKVWEVCFGKKGEFQEVVRAFELKGHSAAVHSFAFSNDSRRMASVSKDGTWKLWDTDVEYKKKQDPYLLKTGRFEEAAGAAPCRLALSPNAQVLALASGSSIHLYNTRRGEKEECFERVHGECIANLSFDITGRFLASCGDRAVRLFHNTPGHRAMVEEMQGHLKRASNESTRQRLQQQLTQAQETLKSLGALKK
With B1 the binding was “binds”.
